Assay results from paper PMC8674265.
Results are given in words; binding and its absence hold for the method and conditions named. Binding seen in cells or lysates may run through a third protein. Here binding means that the protein was enriched with, or labelled near, the bait; the list need not be complete. No binding means not detected with the bait.

Sequences of proteins named here, by UniProt entry; tags and fusion partners are left off.
UniProt Q9UKV8: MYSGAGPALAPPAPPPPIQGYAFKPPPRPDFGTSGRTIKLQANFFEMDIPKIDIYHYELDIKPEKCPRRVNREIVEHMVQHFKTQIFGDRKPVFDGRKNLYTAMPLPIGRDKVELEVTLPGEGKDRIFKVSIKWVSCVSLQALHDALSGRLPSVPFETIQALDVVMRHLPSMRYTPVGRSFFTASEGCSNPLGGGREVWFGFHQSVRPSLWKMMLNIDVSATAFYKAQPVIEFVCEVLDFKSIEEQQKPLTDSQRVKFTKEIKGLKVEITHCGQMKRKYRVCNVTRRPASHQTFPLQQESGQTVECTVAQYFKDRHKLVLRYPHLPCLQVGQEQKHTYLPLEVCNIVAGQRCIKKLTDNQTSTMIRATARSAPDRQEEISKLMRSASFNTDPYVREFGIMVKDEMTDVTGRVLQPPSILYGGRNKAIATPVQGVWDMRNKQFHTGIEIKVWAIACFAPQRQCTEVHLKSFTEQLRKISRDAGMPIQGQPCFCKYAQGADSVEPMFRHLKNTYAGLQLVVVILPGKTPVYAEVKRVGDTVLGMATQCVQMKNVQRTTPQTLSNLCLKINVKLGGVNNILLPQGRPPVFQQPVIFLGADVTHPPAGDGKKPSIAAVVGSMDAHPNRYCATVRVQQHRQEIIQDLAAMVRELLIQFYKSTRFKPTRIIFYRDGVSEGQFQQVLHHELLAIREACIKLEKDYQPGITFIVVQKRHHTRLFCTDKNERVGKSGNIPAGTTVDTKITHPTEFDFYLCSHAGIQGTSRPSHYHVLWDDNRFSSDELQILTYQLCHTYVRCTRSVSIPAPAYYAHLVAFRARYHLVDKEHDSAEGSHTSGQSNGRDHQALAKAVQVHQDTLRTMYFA
UniProt Q12873: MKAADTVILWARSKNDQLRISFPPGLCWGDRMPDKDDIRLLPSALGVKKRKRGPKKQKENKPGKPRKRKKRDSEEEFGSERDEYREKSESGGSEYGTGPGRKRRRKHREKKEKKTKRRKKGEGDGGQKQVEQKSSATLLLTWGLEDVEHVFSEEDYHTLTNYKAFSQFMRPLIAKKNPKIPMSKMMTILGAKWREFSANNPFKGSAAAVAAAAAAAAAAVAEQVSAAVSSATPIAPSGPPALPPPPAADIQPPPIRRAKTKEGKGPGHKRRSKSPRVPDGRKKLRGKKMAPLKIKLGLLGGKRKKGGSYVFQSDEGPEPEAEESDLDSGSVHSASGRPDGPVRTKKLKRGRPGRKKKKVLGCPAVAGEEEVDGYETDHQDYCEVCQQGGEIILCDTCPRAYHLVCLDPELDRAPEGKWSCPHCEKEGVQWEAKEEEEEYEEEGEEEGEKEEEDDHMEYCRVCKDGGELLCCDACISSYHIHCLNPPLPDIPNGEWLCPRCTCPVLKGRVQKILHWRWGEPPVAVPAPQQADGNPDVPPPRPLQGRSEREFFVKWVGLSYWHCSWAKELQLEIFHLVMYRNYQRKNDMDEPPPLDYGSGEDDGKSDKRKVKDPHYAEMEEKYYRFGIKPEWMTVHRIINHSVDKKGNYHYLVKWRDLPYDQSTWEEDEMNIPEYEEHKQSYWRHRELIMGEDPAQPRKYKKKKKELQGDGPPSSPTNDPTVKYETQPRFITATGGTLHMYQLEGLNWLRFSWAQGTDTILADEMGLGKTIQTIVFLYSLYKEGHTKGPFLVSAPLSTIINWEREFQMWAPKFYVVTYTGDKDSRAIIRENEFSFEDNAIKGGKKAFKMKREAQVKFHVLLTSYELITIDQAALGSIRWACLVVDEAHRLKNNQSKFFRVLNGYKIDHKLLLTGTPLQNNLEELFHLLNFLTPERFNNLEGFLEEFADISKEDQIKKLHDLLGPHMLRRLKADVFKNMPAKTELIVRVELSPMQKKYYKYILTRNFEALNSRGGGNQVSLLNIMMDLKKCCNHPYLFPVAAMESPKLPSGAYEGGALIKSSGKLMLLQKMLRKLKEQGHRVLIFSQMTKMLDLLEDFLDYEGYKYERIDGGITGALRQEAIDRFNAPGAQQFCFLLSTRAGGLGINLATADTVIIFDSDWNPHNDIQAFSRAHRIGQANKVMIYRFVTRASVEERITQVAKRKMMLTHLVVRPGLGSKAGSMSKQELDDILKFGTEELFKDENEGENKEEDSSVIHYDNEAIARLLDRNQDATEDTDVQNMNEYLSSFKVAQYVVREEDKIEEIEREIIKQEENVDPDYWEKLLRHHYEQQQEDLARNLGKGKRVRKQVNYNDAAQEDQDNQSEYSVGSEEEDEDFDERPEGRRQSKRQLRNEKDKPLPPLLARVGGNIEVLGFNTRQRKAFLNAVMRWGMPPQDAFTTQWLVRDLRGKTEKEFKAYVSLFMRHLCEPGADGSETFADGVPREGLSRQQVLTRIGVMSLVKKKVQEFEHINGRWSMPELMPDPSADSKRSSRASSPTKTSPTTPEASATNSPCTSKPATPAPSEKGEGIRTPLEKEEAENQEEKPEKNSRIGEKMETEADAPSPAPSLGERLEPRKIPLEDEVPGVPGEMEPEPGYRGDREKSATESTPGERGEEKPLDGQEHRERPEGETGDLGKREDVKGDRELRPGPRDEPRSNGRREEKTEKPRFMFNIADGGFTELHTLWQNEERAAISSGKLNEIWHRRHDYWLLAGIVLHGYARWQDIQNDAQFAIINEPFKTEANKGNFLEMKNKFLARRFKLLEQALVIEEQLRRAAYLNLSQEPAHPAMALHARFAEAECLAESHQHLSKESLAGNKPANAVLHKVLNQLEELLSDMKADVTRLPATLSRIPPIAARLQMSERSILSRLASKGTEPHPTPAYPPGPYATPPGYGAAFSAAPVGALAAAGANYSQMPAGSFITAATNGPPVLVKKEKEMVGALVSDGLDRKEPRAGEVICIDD
UniProt Q92600: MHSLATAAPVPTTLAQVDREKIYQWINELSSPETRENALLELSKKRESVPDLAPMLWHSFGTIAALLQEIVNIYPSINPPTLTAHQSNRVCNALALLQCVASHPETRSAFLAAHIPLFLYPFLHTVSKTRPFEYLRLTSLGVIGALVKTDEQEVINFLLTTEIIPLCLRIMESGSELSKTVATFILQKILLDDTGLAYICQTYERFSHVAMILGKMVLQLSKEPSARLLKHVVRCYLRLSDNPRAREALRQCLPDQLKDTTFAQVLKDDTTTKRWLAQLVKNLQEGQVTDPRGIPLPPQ
UniProt O75530: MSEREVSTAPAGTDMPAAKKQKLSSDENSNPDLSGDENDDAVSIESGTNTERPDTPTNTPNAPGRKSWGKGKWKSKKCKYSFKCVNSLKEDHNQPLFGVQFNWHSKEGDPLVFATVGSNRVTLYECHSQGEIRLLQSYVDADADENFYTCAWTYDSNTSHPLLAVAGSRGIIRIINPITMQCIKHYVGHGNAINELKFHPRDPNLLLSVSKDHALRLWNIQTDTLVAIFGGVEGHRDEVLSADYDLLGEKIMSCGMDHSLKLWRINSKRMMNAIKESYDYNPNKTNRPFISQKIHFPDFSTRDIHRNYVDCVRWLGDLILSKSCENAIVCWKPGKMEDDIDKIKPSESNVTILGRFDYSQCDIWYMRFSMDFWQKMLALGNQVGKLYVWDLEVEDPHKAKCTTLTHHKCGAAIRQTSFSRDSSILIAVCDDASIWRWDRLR
UniProt Q86U44: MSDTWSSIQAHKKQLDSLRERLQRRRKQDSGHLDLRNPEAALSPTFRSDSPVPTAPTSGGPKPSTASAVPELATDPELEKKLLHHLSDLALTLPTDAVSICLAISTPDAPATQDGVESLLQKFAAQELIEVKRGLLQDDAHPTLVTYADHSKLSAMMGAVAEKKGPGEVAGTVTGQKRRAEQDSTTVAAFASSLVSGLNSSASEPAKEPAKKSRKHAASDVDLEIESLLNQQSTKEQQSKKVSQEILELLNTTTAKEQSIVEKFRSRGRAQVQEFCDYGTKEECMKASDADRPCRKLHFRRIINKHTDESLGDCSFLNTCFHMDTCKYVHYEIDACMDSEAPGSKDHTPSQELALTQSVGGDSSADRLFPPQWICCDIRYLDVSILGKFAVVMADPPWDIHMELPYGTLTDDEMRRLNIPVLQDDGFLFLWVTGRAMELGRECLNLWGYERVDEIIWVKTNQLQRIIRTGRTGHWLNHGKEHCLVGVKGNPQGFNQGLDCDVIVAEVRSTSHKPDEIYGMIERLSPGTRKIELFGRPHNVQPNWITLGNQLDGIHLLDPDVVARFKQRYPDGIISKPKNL
UniProt Q9H4L4: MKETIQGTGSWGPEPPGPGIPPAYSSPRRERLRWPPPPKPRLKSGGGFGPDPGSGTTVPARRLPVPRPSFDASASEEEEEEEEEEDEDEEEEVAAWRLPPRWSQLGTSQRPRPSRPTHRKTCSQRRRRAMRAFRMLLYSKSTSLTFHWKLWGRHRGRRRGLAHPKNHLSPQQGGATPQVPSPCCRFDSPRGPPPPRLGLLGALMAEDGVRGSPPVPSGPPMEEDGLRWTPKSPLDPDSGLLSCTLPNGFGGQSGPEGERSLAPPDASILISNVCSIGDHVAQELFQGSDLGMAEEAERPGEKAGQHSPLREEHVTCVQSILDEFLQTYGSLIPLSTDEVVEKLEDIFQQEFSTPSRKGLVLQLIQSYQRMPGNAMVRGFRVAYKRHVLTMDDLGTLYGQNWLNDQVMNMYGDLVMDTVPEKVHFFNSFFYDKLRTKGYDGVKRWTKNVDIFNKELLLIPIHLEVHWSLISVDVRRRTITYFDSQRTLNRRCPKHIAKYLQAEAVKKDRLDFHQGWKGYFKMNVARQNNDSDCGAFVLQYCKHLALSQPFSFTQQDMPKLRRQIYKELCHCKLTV
UniProt Q96GM5: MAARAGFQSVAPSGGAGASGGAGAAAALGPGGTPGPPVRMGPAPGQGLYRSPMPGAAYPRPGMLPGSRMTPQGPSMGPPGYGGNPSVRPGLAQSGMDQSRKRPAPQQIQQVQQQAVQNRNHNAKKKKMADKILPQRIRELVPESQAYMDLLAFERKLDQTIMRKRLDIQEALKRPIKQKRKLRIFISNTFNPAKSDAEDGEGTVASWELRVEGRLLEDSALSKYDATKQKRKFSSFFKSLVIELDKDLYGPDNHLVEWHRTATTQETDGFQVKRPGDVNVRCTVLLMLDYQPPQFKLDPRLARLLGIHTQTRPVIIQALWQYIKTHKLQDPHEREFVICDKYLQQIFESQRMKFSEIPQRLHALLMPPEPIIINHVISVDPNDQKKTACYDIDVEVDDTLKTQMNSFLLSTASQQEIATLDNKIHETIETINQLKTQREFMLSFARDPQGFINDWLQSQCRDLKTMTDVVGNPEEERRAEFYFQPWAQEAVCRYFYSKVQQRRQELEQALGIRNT
UniProt Q9BYJ9: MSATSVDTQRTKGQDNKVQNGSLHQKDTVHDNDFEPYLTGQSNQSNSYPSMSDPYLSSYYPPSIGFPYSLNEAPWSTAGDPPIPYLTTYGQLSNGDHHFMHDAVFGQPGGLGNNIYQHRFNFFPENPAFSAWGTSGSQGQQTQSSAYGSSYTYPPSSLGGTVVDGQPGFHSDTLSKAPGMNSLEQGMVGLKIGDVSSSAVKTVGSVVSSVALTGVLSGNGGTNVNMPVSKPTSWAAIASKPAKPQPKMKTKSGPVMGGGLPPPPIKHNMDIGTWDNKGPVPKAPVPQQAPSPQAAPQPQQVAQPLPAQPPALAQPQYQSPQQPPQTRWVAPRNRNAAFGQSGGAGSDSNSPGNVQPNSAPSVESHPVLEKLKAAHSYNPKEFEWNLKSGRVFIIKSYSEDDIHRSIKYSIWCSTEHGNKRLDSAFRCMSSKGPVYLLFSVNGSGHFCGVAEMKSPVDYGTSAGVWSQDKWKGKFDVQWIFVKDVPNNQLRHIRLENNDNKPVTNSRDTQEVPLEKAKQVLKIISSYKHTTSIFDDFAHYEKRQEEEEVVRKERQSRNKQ
UniProt Q7Z739: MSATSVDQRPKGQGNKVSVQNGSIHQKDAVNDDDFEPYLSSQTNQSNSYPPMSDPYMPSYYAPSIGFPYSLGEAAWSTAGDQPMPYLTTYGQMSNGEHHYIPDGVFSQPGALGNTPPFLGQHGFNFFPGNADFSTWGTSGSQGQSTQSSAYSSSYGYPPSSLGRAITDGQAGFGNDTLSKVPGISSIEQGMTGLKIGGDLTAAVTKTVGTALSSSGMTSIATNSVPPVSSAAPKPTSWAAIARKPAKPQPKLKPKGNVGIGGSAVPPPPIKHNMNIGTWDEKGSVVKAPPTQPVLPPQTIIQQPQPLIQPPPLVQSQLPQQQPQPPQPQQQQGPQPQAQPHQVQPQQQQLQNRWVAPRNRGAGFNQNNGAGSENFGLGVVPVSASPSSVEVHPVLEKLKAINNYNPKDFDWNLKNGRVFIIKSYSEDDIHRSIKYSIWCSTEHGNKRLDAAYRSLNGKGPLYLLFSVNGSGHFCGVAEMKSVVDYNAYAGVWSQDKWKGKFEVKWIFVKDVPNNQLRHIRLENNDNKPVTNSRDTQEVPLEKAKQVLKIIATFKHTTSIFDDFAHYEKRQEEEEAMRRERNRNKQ

The substances below were run against T1, ELM2 and SANT domain-containing protein 1 (ELMSAN1) (human (endogenous in HEK293T and Hela.cl1)) (UniProt Q6PJG2) (assay: affinity purification with mass spectrometry; HEK293T nuclear extract precipitated with 5 µg rabbit anti-ELMSAN1 antibody and protein A magnetic beads, eluted with 0.5 M ammonium hydroxide, LC-MS/MS; controls water or normal rabbit IgG; enrichment by spectral counts and SAINT (FC-A > 1); four experiments).
T1 sequence: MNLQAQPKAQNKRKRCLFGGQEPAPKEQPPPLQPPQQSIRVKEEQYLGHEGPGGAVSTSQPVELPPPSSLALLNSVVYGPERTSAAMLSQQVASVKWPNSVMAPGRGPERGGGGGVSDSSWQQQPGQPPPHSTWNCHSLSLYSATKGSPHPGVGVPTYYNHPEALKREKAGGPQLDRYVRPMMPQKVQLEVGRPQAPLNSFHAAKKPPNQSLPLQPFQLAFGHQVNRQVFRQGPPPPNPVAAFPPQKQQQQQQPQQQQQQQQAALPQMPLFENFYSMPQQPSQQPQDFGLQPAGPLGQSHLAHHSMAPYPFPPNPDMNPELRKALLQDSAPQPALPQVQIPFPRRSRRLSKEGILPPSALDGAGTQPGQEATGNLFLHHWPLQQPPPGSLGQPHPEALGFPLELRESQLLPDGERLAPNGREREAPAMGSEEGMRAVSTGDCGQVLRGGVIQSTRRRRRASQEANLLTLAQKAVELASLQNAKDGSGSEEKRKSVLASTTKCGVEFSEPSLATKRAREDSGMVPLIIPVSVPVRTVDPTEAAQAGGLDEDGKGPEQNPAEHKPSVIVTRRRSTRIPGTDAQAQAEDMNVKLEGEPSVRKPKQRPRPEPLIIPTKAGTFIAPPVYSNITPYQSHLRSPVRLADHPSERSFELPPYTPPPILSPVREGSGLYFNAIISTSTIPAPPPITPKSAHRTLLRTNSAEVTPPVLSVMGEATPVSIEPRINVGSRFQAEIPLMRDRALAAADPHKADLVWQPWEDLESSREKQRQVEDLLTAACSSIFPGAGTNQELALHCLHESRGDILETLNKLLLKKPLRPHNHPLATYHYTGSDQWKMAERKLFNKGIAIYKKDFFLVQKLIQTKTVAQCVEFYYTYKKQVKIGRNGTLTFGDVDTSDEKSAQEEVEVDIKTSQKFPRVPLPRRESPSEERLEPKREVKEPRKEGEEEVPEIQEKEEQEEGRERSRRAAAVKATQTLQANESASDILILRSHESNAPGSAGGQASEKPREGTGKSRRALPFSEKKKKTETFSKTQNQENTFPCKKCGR
AGO2 (from UniProt Q9UKV8 1-859) was tested, and the binding was “binds”. With CDC5L (from UniProt Q99459 1-802) the binding was “binds”. With CHD3 (from UniProt Q12873 1-2000) the binding was “binds”. With CHD6 (from UniProt Q8TD26 1-2715) the binding was “binds”. For CNOT1 (from UniProt A5YKK6 1-2376), the binding was “binds”. For CNOT9 (from UniProt Q92600 1-299), the binding was “binds”. With DICER1 (from UniProt Q9UPY3 1-1922) the binding was “binds”. With DNAJC13 (from UniProt O75165 1-2243) the binding was “binds”. EED (from UniProt O75530 1-441) was tested, and the binding was “binds”. For JARID2 (from UniProt Q92833 1-1246), the binding was “binds weakly”. With KMT2A (from UniProt Q03164 1-3969) the binding was “binds”. For KRI1 (from UniProt Q8N9T8 1-703), the binding was “binds”. METTL3 (from UniProt Q86U44 1-580) was tested, and the binding was “no binding”. For NIFK (from UniProt Q9BYG3 1-293), the binding was “binds”. NOP56 (from UniProt O00567 1-594) was tested, and the binding was “binds”. NSD1 (from UniProt Q96L73 1-2696) was tested, and the binding was “binds”. In the case of NSD2 (from UniProt O96028 1-1365), the binding is reported as “binds”. With SENP3 (from UniProt Q9H4L4 1-574) the binding was “binds”. For SMARCD1 (from UniProt Q96GM5 1-515), the binding was “binds”. In the case of SUV39H2 (from UniProt Q9H5I1 1-410), the binding is reported as “no binding”. SUZ12 (from UniProt Q15022 1-739) was tested, and the binding was “binds weakly”. In the case of YTHDF1 (from UniProt Q9BYJ9 1-559), the binding is reported as “binds”. YTHDF3 (from UniProt Q7Z739 1-585) was tested, and the binding was “binds”. For “histone deacetylase HDAC2 (from UniProt Q92769 1-488)”, the binding was “binds”. With “midasin (MDN1) (from UniProt Q9NU22 1-5596)” the binding was “binds”. For “proliferation marker protein Ki67 (MKI67) (from UniProt P46013 1-3256)”, the binding was “binds”.
